# Laboratory results: PubChem BioAssay (Tox21)
# By UniProt entry, the sequences of proteins in these tests, tags left out. Where a name states a change or a piece, a line headed by the entry shows the natural chain unless it says otherwise.
# UniProt O75469: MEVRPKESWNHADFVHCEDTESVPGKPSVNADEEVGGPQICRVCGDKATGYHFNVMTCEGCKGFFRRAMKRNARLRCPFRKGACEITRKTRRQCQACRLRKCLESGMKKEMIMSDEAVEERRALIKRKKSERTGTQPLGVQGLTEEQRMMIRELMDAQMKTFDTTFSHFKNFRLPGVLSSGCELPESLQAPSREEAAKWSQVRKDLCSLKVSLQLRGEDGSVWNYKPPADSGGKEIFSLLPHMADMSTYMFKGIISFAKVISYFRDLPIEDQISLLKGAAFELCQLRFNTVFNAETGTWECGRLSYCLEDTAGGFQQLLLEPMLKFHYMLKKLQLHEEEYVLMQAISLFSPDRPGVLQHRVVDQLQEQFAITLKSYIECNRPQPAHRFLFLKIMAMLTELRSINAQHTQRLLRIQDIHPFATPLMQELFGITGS
# UniProt P10635, whole entry, looked up: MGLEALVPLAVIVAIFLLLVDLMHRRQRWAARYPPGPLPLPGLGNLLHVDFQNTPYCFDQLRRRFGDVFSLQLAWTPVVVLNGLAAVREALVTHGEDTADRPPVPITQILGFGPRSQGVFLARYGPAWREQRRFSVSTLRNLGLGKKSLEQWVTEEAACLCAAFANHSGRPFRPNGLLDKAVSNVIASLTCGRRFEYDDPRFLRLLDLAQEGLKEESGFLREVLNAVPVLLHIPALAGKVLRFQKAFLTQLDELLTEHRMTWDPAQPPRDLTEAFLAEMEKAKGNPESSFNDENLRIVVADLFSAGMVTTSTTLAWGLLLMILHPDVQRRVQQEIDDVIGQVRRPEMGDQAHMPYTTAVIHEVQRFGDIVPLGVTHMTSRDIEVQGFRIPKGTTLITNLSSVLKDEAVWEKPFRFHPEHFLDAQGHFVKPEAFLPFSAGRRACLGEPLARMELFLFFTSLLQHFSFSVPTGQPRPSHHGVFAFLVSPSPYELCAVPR
# Several values for one entry are separate records, joined by “and”; a condition that tells them apart may be missing. Equal values may be shown once. Inconclusive means that the source gave no clear call. Such entries were picked first, then a sample of the others. Where the call is inconclusive, the potency comes from a doubtful curve fit. Some compounds were tested as several samples or in several runs, with calls that do not always agree. Activity calls are given as the source filed them. Calls come from the whole dose curve; as a rule, active = well fitted curve in the direction sought with a large enough effect in the repeat runs; inconclusive = weak or mixed curves; inactive = no such curve, though single readings can be large; an effect the other way counts as inactive or inconclusive.
# Target: Nuclear receptor subfamily 1 group I member 2 (Homo sapiens) (UniProt O75469)
# Assay: Human pregnane X receptor (PXR) small molecule agonists, qHTS assay (AID 1346982); note: nearly all actives have a fitted effect of over 35% in size
# Details: PXR-Luc HepG2, CYP3A4 luciferase reporter, 24 h; series mostly up to 92.4 µM; activation: at the top concentration
# Procedure, shortened: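 Stable HepG2 line reporting PXR-mediated CYP3A4 expression via luciferase. Treatment: 24 hr with compounds in DMSO at 37 C. Detection: ONE-Glo luminescence.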
# % is set by controls: 0 for no effect and ±100 for the full control effect; potency is the fitted concentration of half-maximal effect.
row,SMILES,Potency
1,c1ccc(-c2ccccc2)cc1,inactive
2,Clc1ccc(-c2ccc(Cl)c(Cl)c2Cl)c(Cl)c1Cl,"inconclusive: 65.3 µM [activator, single point]"
3,ClC1=C(Cl)C2(Cl)C(CBr)CC1(Cl)C2(Cl)Cl (stereo not given),active: 48.6 µM
4,CCN(CC)CCOC(=O)C(C)(c1ccccc1)c1ccccc1,active: 13.3 µM
5,CNC(=O)N(C)c1nnc(C(C)(C)C)s1,"inconclusive: 68.7 µM [activator, single point] and active: 54.5 µM"

# Target: Cytochrome P450 2D6 (Homo sapiens) (UniProt P10635)
# Assay: Cytochrome P450 Family 2 Subfamily D Member 6 (CYP2D6) small molecule antagonists: luciferase reporter qHTS assay (AID 1671196); note: nearly all actives have a fitted effect of over 50% in size
# Details: P450-Glo CYP2D6 enzyme assay, luciferin luminescence, 1 h; series mostly up to 115 µM; activity change, negative = inhibition: at the top concentration
# Procedure, shortened: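 Chemicals tested for interference with CYP2D6 activity; proluciferin substrate, NADPH regeneration, 1 h at room temperature, luminescent detection.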
SMILES,Potency,"activity change, negative = inhibition"
CCC[CH2][Sn]([CH2]CCC)([O]C(C)=O)[O]C(C)=O,inconclusive: 40.3 µM [inhibitor],–
CCOC(=O)C(O)(c1ccc(Cl)cc1)c1ccc(Cl)cc1,"inconclusive: 40.3 µM [inhibitor, partial curve] and inconclusive: 25.2 µM [inhibitor, full curve, poor fit]",–
c1ccc(Nc2ccc3ccccc3c2)cc1,"inconclusive: 35.4 µM [inhibitor, partial curve] and inconclusive: 39.9 µM [inhibitor, partial curve]",–
Cc1cc(C(C)(C)c2cc(C)c(O)c(C)c2)cc(C)c1O,inconclusive: 77 µM [inhibitor],–
CCC[CH2][Sn]([Cl])([CH2]CCC)[CH2]CCC,active: 634 nM and active: 2 µM,–
C=C(C)[C@H]1Cc2c(ccc3c2O[C@@H]2COc4cc(OC)c(OC)cc4[C@@H]2C3=O)O1,"inconclusive: 39.9 µM [inhibitor, partial curve]",–
CC(=O)[O][Pb]([c]1ccccc1)([c]1ccccc1)[c]1ccccc1,active: 22.4 µM,–
O=[N+]([O-])c1ccc(F)c([N+](=O)[O-])c1,"inconclusive: 35.9 µM [inhibitor, partial curve]",–
Oc1ccc(Cl)cc1Cc1ccccc1,inconclusive: 71 µM [inhibitor],–
C=CC(=O)OCCCCOC(=O)C=C,–,inactive: -6.85%
Oc1ccc(C2(c3ccc(O)cc3)CCCCC2)cc1,"inconclusive: 75.4 µM [inhibitor, single point]",–
NNC(=O)c1ccccc1,"inconclusive: 65 µM [inhibitor, partial curve]",–
O=S(=O)(Oc1ccc(Cl)cc1)c1ccc(Cl)cc1,active: 16.1 µM and active: 28.3 µM,–
O=C1C2(Cl)C3(Cl)C4(Cl)C(Cl)(Cl)C5(Cl)C3(Cl)C1(Cl)C5(Cl)C24Cl (stereo not given),inconclusive: 78.3 µM [inhibitor],–
CCCCCCCCCCCCCCCC[N+](C)(C)C,active: 862 nM and active: 1.42 µM and active: 1.38 µM,–

# 4 compounds out of the list, ordered by count of non-hydrogen atoms, smallest number first.
SMILES,Potency,"activity change, negative = inhibition"
CCC[CH2][Sn]([Cl])([CH2]CCC)[CH2]CCC,active: 634 nM and active: 2 µM,–
c1ccc(Nc2ccc3ccccc3c2)cc1,"inconclusive: 35.4 µM [inhibitor, partial curve] and inconclusive: 39.9 µM [inhibitor, partial curve]",–
O=S(=O)(Oc1ccc(Cl)cc1)c1ccc(Cl)cc1,active: 16.1 µM and active: 28.3 µM,–
Cc1cc(C(C)(C)c2cc(C)c(O)c(C)c2)cc(C)c1O,inconclusive: 77 µM [inhibitor],–
